Molecules are shown by their SMILES. This is one part of the list. Single values are uncertain, as repeats are few or missing.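 Imaging used 1,536-well plates; nuclei positive for cleaved PARP by antibody were divided by total DNA-stained nuclei to yield the apoptosis fraction. Doses for screening kept most cells viable, and cell lines differ markedly in resting and induced cleaved-PARP levels.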

This assay deals with IST-MEL1. Nature of the assay: cleaved PARP positive nuclei fraction relative to DMSO control; melanoma cells; higher = more apoptosis. Particulars: library dose: low library concentration; 72 h.
As to `CCc1ccc(CCOc2ccc(CC3SC(=O)NC3=O)cc2)nc1` (centres undefined) [pioglitazone] + COc1ccc(COc2ccc(Cc3cnc(N)nc3N)cc2OC)cc1 [GW2580] (first compound 2 µM, partner dose 1 µM), the “cleaved PARP positive nuclei fraction” value is 242%.
As to `COc1cc2c(Oc3ccc4[nH]c(C)cc4c3F)ncnc2cc1OCCCN1CCCC1` [cediranib] + CCc1ccc(CCOc2ccc(CC3SC(=O)NC3=O)cc2)nc1 [pioglitazone] (first compound 0.4 µM, partner dose 2 µM), the “cleaved PARP positive nuclei fraction” value worked out at 84.6%.
Turning to `COc1ccc(-c2ccc3c(N4CCOCC4)nc(N4C[C@@H](C)O[C@@H](C)C4)nc3n2)cc1CO` + COc1cc2ncnc(Nc3ccc(Oc4ccccc4)cc3)c2cc1OC [SrcI1] (first compound 0.02 µM, partner dose 2 µM), the “cleaved PARP positive nuclei fraction” value came out at 62.5%.
With `O=C(O)c1ccc(-c2c[nH]c3ncc(-c4ccccc4)cc23)cc1C1CCCC1` + O=S(=O)(c1ccccc1)N(CC(F)(F)F)c1ccc(C(O)(C(F)(F)F)C(F)(F)F)cc1 [T0901317] (first compound 0.16 µM, partner dose 1.4 µM), the “cleaved PARP positive nuclei fraction” value was 25.8%.
Take `COc1ccc(-c2ccc3c(N4CCOCC4)nc(N4C[C@@H](C)O[C@@H](C)C4)nc3n2)cc1CO` + CCN(CC)CCCCNc1ncc2cc(-c3cc(OC)cc(OC)c3)c(NC(=O)NC(C)(C)C)nc2n1 [PD173074] (first compound 0.02 µM, partner dose 0.1 µM): the “cleaved PARP positive nuclei fraction” value was 34.7%.
On to `Oc1cc(-c2nc(-c3ccccc3)[nH]c2-c2ccncc2)ccc1Cl` + O=C1NC(=O)/C(=C/c2ccc(-c3ccc(F)cc3O)o2)S1 [AS252424] (first compound 0.2 µM, partner dose 1 µM), for which the “cleaved PARP positive nuclei fraction” value is 89.6%.
For `CCc1ccc(CCOc2ccc(CC3SC(=O)NC3=O)cc2)nc1` (centres undefined) [pioglitazone] + O=C(Nc1ccccc1)c1cc([N+](=O)[O-])ccc1Cl [GW9662] (first compound 2 µM, partner dose 2 µM), the “cleaved PARP positive nuclei fraction” value worked out at 109%.
The same measure for `COc1ccc2c(c1)CCC1C2CCC2(C)C(NCCCCCCN3C(=O)C=CC3=O)CCC12` (centres undefined) + O=C(O)C(=O)Nc1sc2c(c1C(=O)O)CCNC2 [TCS401] (first compound 0.4 µM, partner dose 1.66667 µM): 91.4%; for `CN(C)S(=O)(=O)c1ccc2c(c1)/C(=C/c1cc3c([nH]1)CCCC3)C(=O)N2` + COc1cc(N2CCC(N3CCN(C)CC3)CC2)ccc1Nc1ncc(Cl)c(Nc2ccccc2S(=O)(=O)C(C)C)n1 [NVP-TAE684] (first compound 0.4 µM, partner dose 0.08 µM): 131%; for `CN(C)S(=O)(=O)c1ccc2c(c1)/C(=C/c1cc3c([nH]1)CCCC3)C(=O)N2` + N#Cc1c(O)c2c(-c3ccc(-c4ccccc4O)cc3)csc2[nH]c1=O [A769662] (first compound 0.4 µM, partner dose 2 µM): 177%.
As to `COc1ccc2c(c1)CCC1C2CCC2(C)C(NCCCCCCN3C(=O)C=CC3=O)CCC12` (centres undefined) + CC(C)CCN1c2nc(Nc3cc(F)c(O)c(F)c3)ncc2N(C)C(=O)C1C [BID1870] (first compound 0.4 µM, partner dose 0.2 µM), the “cleaved PARP positive nuclei fraction” value is 158%.
`CCc1ccc(CCOc2ccc(CC3SC(=O)NC3=O)cc2)nc1` (centres undefined) [pioglitazone] + Oc1cc(-c2nc(-c3ccccc3)[nH]c2-c2ccncc2)ccc1Cl [L779450] (first compound 2 µM, partner dose 0.2 µM): the “cleaved PARP positive nuclei fraction” value is 43.2%.
As for `CCc1ccc(CCOc2ccc(CC3SC(=O)NC3=O)cc2)nc1` (centres undefined) [pioglitazone] + CC(C)CCN1c2nc(Nc3cc(F)c(O)c(F)c3)ncc2N(C)C(=O)C1C [BID1870] (first compound 2 µM, partner dose 0.2 µM), the “cleaved PARP positive nuclei fraction” value stood at 49.9%.
In the case of `CN(NC(=O)CC(=O)NN(C)C(=S)c1ccccc1)C(=S)c1ccccc1` + O=c1cc(-c2cccc3c2Sc2ccccc2S3)oc(N2CCOCC2)c1 [KU55933] (first compound 0.006 µM, partner dose 1 µM), the “cleaved PARP positive nuclei fraction” value worked out at 344%.
In the case of `O=C(O)c1ccc(-c2c[nH]c3ncc(-c4ccccc4)cc23)cc1C1CCCC1` + Oc1nc(-c2ccc(C(F)(F)F)cc2)nc2c1CSCC2 [XAV939] (first compound 0.16 µM, partner dose 2 µM), the “cleaved PARP positive nuclei fraction” value stood at 226%.
`COc1ccc(COc2ccc(Cc3cnc(N)nc3N)cc2OC)cc1` + COc1cc(N2CCC(N3CCN(C)CC3)CC2)ccc1Nc1ncc(Cl)c(Nc2ccccc2S(=O)(=O)C(C)C)n1 [NVP-TAE684] (first compound 1 µM, partner dose 0.08 µM): the “cleaved PARP positive nuclei fraction” value came to 44.8%.
For the molecule `COc1ccc2c(c1)CCC1C2CCC2(C)C(NCCCCCCN3C(=O)C=CC3=O)CCC12` (centres undefined) + c1cc(-c2cnn3cc(-c4ccc(OCCN5CCCCC5)cc4)cnc23)ccn1 [Dorsomorphin] (first compound 0.4 µM, partner dose 0.4 µM), the “cleaved PARP positive nuclei fraction” value stood at 133%.
For the molecule `NCC(=O)Nc1ccc(-n2nc(C(F)(F)F)cc2-c2ccc3c(ccc4ccccc43)c2)cc1` + COc1ccc(COc2ccc(Cc3cnc(N)nc3N)cc2OC)cc1 [GW2580] (first compound 1 µM, partner dose 1 µM), the “cleaved PARP positive nuclei fraction” value was determined as 321%.
For `COc1cc2ncnc(Nc3ccc(Oc4ccccc4)cc3)c2cc1OC` + COc1cc(N2CCC(N3CCN(C)CC3)CC2)ccc1Nc1ncc(Cl)c(Nc2ccccc2S(=O)(=O)C(C)C)n1 [NVP-TAE684] (first compound 2 µM, partner dose 0.08 µM), the “cleaved PARP positive nuclei fraction” value came out at 172%.
